Assay results: PMC12219679
Results are given in words; binding and its absence hold for the method and conditions named. Some binding calls cover weakened binding; strength is not graded here.

Protein sequences, listed by entry. Tags and fused reporters are not part of them. Residues count along the entry.
UniProt P25445, residues 26-173: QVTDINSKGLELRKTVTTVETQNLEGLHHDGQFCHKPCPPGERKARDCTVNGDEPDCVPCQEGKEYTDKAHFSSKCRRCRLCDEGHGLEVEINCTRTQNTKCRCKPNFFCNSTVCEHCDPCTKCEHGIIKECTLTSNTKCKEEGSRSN
UniProt P48023, residues 130-281: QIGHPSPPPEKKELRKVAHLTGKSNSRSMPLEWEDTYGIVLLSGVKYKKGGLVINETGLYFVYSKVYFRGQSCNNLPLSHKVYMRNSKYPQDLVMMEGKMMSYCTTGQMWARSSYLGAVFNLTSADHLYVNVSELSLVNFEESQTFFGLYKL

Target: CD95-His (Sino Biological) (UniProt P25445)
Experiment: native gel or EMSA; blue native PAGE (BN-PAGE); 100 ng CD95-His alone or with 10x molar excess of IZ-CD95L or FLAG-CD95L; 4 °C; blot probed with anti-CD95 antibody (clone DX2); both purified

binding | Substance
binds | FLAG-CD95L (Enzo) (from UniProt P48023 130-281) (ligand)
binds | CD95-His (Sino Biological) (from UniProt P25445 26-173) (receptor)
